Laboratory results taken from patent US20060035283A1.
These are yes or no findings as the source states them, for the method shown. Binding seen in cells or lysates may run through a third protein. Some results given as binding are weak or reduced against the parent protein; the word gives no strength.

Amino acid sequences for entries named in this document (tags omitted). A change or cut given only in a name is not applied to a line headed by its entry.
UniProt Q00960: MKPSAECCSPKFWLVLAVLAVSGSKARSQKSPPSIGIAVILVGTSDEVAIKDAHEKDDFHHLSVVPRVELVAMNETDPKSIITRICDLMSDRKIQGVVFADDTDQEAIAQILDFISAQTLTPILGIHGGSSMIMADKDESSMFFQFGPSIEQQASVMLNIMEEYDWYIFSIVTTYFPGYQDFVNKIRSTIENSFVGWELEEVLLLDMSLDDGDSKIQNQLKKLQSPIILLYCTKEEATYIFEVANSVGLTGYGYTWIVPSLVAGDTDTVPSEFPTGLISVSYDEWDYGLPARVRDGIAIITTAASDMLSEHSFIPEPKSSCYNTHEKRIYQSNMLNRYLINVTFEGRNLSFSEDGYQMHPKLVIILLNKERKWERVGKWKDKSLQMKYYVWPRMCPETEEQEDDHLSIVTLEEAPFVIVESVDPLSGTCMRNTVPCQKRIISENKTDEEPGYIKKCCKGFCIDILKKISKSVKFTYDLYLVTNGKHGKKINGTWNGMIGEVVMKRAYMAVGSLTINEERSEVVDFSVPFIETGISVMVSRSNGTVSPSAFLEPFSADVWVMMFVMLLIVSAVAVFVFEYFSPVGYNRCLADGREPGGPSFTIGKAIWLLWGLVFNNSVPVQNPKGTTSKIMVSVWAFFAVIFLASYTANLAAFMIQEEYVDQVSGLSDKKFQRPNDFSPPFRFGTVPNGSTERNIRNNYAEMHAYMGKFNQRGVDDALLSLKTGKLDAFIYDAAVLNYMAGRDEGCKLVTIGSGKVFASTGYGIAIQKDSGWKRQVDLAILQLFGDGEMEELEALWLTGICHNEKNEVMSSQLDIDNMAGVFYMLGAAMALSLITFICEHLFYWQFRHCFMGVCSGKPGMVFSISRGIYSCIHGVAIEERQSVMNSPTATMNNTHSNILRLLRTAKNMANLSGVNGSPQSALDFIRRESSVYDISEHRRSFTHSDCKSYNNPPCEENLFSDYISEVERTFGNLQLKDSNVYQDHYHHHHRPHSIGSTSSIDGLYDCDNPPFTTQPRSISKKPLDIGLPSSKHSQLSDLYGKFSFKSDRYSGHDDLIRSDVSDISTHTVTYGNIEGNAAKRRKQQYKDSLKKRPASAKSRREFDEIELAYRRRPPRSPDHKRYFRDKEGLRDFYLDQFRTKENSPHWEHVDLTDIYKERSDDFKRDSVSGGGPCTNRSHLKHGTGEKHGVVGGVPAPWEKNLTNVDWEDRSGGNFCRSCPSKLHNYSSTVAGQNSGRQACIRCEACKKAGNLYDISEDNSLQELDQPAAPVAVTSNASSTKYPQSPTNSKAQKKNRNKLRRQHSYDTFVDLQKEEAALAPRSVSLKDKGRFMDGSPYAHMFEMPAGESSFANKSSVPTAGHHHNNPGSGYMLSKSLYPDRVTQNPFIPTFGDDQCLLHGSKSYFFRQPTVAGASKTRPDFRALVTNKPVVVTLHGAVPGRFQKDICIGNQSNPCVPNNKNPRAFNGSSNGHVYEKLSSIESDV

How the values were obtained:
[1] = biological target: T1, full-length mouse RasGRF1 (mouse) (UniProt P27671); test: NusA pull-down (FIG. 1A)
T1 sequence (looked up): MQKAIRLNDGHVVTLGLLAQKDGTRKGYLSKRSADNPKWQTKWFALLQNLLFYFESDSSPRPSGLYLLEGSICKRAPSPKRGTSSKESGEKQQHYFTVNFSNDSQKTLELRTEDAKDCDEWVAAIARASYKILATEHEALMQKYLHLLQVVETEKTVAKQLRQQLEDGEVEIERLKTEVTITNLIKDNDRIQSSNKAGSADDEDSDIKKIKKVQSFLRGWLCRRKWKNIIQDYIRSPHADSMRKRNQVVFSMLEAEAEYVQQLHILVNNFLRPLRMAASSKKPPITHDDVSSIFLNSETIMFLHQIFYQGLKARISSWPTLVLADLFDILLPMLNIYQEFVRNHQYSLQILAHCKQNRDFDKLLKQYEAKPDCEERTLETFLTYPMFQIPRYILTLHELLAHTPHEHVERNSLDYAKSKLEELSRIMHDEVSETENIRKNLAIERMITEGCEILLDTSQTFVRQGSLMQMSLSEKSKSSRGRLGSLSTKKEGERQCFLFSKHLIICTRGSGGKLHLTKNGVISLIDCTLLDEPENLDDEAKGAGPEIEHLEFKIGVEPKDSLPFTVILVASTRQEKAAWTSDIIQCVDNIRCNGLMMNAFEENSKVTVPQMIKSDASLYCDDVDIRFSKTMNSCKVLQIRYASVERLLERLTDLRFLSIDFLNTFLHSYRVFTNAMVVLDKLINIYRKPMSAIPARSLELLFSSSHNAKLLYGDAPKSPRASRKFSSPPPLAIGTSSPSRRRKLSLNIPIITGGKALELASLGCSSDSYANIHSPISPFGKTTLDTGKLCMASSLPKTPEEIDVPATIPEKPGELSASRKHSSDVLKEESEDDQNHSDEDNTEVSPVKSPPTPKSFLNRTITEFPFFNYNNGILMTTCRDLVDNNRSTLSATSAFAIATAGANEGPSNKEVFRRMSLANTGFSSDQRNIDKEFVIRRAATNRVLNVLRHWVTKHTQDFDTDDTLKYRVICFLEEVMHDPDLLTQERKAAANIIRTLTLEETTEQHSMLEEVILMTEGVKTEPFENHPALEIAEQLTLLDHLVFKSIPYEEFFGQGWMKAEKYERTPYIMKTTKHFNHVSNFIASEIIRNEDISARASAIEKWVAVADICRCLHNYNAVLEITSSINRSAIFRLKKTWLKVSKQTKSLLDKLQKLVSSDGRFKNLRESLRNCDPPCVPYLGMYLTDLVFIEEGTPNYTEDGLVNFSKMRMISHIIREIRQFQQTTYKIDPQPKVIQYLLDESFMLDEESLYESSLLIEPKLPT

[2] = biological target: T1, full-length mouse RasGRF1 (mouse); test: pull-down on Co2+ beads of 35S-labelled in vitro translated RasGRF1
[3] = biological target: T1, full-length mouse RasGRF1 (mouse); test: co-immunoprecipitation of in vitro translated proteins with AU1 antibody

Row | Substance | binding [1] | binding [2] | binding [3]
1 | 6His-NusA-NR2B (886-1310) fusion protein (from UniProt Q00960 886-1310) | binds | binds | 
2 | AU1-tagged NR2B fragment, amino acids 886-1219 (from UniProt Q00960 886-1219) |  |  | binds
3 | AU1-tagged NR2B fragment, amino acids 886-1310 (from UniProt Q00960 886-1310) |  |  | binds
